Consider one substance from doi:10.1101/2022.06.01.494432.

Protein sequences, listed by entry. Tags and fused reporters are not part of them.
UniProt Q9Z0W5: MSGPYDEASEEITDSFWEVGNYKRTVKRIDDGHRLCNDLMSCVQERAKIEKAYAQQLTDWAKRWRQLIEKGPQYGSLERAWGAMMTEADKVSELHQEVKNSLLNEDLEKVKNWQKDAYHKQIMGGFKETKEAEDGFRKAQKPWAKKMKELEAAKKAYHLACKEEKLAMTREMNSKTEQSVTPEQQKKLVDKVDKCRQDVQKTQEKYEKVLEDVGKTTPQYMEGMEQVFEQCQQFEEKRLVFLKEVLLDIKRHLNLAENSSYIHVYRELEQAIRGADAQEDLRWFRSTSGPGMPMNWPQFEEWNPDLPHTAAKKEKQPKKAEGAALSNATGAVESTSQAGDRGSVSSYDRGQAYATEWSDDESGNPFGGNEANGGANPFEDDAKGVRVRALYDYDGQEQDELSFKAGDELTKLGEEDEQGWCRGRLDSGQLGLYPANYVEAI

The experiment concerns the target T1, GST-Dyn1xA-PRM (wild-type rat Dyn1xA C-terminus, residues 746-864) (rat) (UniProt P21575).
T1 sequence: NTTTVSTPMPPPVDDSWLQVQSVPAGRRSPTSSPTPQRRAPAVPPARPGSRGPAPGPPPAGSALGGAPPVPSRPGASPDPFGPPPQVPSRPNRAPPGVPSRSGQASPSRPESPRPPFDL
Description: pull-down.

No constants are given. Whether binding was seen depends on the method and setting. In cells and extracts the contact can be indirect. Some results given as binding are weak or reduced against the parent protein; the word gives no strength. Tags and fused reporters may be left off the sequences shown.

“Syndapin 1 (endogenous, rat brain nerve terminals) (from UniProt Q9Z0W5 1-441)”: the binding result is given as “binds”.
